This note sets out measurements from article PMC11910234.

The chains behind the UniProt entries cited, without tags or fusion partners.
UniProt Q14966: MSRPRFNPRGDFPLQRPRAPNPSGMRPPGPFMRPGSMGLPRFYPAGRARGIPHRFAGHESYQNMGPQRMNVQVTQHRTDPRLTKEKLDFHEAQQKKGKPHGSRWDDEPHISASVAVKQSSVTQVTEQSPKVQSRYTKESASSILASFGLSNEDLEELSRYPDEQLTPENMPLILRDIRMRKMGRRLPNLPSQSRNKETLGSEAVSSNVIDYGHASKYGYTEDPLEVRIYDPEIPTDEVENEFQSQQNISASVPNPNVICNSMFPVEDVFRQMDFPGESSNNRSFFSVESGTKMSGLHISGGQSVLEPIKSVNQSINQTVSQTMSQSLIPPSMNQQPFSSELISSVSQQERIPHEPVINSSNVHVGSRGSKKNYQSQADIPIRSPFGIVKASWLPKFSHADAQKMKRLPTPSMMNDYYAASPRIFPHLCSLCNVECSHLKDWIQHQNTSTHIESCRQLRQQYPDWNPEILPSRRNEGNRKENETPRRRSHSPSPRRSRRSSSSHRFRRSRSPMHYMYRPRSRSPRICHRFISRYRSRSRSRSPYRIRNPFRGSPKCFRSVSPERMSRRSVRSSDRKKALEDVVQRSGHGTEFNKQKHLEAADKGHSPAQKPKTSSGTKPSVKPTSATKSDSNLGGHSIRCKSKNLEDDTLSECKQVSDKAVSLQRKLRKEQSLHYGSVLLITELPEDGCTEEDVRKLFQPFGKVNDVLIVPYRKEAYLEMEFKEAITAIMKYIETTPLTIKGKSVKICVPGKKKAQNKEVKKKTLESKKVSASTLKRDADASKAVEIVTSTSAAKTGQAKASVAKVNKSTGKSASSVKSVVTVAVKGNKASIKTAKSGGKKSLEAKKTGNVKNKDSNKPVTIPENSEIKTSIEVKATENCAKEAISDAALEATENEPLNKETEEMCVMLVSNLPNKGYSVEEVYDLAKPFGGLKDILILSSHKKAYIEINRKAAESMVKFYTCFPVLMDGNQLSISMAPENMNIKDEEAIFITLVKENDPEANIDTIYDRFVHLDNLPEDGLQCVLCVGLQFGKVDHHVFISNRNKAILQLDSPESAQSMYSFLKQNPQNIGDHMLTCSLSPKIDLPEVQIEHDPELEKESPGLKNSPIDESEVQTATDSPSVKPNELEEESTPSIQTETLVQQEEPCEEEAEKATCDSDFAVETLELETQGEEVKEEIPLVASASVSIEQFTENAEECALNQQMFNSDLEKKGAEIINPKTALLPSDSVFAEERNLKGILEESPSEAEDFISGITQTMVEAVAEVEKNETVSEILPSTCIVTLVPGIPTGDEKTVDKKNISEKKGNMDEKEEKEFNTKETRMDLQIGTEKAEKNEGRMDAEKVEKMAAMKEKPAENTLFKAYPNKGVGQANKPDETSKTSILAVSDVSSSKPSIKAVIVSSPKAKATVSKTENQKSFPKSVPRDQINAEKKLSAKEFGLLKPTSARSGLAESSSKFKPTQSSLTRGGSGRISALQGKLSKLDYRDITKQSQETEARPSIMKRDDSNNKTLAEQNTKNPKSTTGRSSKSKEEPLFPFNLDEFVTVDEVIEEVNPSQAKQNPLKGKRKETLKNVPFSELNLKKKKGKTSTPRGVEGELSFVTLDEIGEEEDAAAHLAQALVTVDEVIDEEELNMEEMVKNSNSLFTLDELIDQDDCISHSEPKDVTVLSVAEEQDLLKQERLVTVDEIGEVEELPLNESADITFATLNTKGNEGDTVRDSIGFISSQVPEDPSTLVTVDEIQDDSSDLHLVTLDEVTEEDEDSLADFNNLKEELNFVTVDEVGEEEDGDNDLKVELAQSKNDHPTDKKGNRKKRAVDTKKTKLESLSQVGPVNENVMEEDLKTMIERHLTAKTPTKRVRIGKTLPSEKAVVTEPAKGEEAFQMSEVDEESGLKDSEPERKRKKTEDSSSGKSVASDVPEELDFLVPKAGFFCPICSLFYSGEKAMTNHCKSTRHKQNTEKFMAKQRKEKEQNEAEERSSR
UniProt Q99549: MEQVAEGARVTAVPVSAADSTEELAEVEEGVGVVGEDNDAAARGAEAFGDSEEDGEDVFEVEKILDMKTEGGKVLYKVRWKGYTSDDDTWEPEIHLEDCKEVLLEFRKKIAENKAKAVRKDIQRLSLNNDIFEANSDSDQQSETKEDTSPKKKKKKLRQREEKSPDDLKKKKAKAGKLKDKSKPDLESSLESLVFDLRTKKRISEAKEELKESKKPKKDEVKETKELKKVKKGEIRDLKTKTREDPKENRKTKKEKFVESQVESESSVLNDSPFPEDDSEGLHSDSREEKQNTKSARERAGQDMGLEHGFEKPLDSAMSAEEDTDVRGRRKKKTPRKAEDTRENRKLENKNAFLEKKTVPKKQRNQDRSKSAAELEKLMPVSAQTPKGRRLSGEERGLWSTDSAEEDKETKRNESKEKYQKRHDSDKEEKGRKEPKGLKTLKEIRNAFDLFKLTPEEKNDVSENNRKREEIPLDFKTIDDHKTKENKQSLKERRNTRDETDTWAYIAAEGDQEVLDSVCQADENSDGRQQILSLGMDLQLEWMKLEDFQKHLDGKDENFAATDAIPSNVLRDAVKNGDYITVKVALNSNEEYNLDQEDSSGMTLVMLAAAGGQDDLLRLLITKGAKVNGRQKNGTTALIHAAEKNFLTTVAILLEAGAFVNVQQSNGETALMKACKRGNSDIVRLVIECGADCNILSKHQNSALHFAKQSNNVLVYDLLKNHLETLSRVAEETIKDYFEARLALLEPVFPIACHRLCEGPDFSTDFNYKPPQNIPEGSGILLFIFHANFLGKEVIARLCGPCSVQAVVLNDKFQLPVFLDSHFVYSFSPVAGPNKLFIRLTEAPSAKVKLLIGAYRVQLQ
UniProt Q9UK61: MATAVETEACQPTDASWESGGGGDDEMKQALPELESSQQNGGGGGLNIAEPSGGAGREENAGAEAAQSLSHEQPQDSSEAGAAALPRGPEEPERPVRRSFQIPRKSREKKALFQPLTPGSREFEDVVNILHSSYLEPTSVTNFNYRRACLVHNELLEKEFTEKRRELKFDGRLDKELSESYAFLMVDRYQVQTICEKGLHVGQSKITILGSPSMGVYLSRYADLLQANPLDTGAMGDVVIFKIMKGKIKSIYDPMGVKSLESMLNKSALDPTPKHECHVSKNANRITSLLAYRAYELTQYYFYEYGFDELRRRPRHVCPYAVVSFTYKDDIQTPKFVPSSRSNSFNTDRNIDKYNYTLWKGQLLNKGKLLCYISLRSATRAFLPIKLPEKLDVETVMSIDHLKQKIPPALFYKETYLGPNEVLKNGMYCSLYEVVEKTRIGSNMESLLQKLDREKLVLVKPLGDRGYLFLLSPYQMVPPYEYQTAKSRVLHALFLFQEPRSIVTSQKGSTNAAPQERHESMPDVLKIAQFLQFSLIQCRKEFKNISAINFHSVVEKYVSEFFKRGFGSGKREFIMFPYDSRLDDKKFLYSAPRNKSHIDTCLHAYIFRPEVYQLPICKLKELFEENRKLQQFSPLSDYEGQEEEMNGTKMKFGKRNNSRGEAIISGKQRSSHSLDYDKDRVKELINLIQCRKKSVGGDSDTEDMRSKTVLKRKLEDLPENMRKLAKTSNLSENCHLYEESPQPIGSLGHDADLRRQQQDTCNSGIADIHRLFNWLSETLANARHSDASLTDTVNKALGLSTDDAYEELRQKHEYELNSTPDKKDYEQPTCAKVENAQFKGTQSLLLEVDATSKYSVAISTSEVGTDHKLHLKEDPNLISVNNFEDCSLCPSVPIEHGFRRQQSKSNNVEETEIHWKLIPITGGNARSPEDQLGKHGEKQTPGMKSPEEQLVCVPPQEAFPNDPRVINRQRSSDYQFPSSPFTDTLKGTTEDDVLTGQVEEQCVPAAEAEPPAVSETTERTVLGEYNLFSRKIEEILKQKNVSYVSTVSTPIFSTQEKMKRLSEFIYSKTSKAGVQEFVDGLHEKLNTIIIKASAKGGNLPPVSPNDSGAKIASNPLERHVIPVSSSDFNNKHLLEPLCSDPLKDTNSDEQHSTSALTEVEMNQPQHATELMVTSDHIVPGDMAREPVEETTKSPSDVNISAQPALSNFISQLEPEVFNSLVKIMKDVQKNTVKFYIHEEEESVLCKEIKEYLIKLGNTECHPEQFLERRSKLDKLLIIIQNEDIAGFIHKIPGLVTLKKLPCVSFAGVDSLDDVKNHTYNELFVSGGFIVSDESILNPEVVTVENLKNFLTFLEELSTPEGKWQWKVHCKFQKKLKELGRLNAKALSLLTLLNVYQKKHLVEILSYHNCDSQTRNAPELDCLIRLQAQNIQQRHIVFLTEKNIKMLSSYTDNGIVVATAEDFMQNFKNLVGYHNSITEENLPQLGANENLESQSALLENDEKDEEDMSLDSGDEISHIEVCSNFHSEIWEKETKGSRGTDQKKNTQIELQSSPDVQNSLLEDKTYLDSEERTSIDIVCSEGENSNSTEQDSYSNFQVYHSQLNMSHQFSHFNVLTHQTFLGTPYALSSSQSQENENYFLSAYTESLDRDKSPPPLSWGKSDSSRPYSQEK

In the test the target is Zinc Finger Protein 638 (ZNF638) (human (endogenous in A172)) (UniProt Q14966). Description: co-IP; A172 cells treated with scramble or ZNF638 siRNA, lysed in RIPA lysis buffer with protease inhibitors; precleared with protein A/G agarose; precipitated with anti-ZNF638 antibody overnight, protein A/G agarose 2.5 hours; blotted with SETDB1, TASOR and MPHOSPH8 antibodies.

No constants are given. Whether binding was seen depends on the method and setting. In cells and extracts the contact can be indirect. Some binding calls cover weakened binding; strength is not graded here.

With “M-phase phosphoprotein 8 (MPP8) (from UniProt Q99549 1-860)”, the binding result is “binds”.
In the case of “transcription activation suppressor (TASOR) (from UniProt Q9UK61 1-1670)”, the binding entry is listed as “binds”.
